At least one read-out could not be matched to a standard name with certainty.
Test system: A3BCTD-QM-ΔL3-AL1swap
Assay: Real-time NMR assay: deamination of DNA substrates by A3BCTD-QM-ΔL3-AL1swap
Format: biochemical, human
Experimental: FIG. 5 is a set of graphs showing the initial rate of A3BCTD-QM-ΔL3-AL1swap catalyzed deamination of terminally (A), internally (B-D) cross-linked oligos and a dC-hairpin in comparison with the linear substrate. Substrate concentrations are 100 μM in (A and B), 800 μM in (C) and 400 μM in (D). Enzyme concentrations are 50 nM in (A and B) and 300 nM in (C) and 100 nM in (D). Buffers are 50 mM citrate-phosphate (pH 5.5 for A-C) and 50 mM Na-phosphate (pH 6.0 for D), 200 mM NaCl, 2 mM β-mercaptoethanol, 200 μM 4,4-dimethyl-4-silapentane-1-sulfonic acid (DSS) and 10% D2O at 25° C. Error bars are estimated standard deviations from triplicate measurements.
Real-time NMR assays are advantageous because they are direct, utilizing only A3 enzymes and oligos in a suitable buffer system, in contrast to many fluorescence-based assays where a secondary enzyme and a fluorescently modified oligo are used. […]
For determination of inhibition constants (KI) of inhibitors the inventors first evaluated kinetic parameters of A3BCTD-QM-ΔL3-AL1swap on two DNA substrates (Table 5), which were used to detect the residual deamination rate in the presence of inhibitors (Table 6). […]

## ATTTCATTT [5′-AT3dCAT3]
Linear analysis (Lineweaver-Burk plot)
  kcat/Km: 1400 M⁻¹ s⁻¹
Non-linear regression analysis
  kcat/Km: 1800 M⁻¹ s⁻¹

Reference: patent US20240140983A1, “SINGLE STRANDED DNA ENZYME INHIBITORS” (MASSEY UNIVERSITY, priority 2021, published 2024)
